Columns and labels:
[1] = target: T1, human Nav.1.7 (Homo sapiens, UniProt Q15858); assay: Nav1.7 spiking HEK assay on Swarm; assay type: cell-based; conditions: normalized mean spike amplitude score; Prestwick library compounds
T1 construct: expressed in transfected cells

Protein sequences, listed by entry. Tags and fused reporters are not part of them.
UniProt Q15858, whole entry: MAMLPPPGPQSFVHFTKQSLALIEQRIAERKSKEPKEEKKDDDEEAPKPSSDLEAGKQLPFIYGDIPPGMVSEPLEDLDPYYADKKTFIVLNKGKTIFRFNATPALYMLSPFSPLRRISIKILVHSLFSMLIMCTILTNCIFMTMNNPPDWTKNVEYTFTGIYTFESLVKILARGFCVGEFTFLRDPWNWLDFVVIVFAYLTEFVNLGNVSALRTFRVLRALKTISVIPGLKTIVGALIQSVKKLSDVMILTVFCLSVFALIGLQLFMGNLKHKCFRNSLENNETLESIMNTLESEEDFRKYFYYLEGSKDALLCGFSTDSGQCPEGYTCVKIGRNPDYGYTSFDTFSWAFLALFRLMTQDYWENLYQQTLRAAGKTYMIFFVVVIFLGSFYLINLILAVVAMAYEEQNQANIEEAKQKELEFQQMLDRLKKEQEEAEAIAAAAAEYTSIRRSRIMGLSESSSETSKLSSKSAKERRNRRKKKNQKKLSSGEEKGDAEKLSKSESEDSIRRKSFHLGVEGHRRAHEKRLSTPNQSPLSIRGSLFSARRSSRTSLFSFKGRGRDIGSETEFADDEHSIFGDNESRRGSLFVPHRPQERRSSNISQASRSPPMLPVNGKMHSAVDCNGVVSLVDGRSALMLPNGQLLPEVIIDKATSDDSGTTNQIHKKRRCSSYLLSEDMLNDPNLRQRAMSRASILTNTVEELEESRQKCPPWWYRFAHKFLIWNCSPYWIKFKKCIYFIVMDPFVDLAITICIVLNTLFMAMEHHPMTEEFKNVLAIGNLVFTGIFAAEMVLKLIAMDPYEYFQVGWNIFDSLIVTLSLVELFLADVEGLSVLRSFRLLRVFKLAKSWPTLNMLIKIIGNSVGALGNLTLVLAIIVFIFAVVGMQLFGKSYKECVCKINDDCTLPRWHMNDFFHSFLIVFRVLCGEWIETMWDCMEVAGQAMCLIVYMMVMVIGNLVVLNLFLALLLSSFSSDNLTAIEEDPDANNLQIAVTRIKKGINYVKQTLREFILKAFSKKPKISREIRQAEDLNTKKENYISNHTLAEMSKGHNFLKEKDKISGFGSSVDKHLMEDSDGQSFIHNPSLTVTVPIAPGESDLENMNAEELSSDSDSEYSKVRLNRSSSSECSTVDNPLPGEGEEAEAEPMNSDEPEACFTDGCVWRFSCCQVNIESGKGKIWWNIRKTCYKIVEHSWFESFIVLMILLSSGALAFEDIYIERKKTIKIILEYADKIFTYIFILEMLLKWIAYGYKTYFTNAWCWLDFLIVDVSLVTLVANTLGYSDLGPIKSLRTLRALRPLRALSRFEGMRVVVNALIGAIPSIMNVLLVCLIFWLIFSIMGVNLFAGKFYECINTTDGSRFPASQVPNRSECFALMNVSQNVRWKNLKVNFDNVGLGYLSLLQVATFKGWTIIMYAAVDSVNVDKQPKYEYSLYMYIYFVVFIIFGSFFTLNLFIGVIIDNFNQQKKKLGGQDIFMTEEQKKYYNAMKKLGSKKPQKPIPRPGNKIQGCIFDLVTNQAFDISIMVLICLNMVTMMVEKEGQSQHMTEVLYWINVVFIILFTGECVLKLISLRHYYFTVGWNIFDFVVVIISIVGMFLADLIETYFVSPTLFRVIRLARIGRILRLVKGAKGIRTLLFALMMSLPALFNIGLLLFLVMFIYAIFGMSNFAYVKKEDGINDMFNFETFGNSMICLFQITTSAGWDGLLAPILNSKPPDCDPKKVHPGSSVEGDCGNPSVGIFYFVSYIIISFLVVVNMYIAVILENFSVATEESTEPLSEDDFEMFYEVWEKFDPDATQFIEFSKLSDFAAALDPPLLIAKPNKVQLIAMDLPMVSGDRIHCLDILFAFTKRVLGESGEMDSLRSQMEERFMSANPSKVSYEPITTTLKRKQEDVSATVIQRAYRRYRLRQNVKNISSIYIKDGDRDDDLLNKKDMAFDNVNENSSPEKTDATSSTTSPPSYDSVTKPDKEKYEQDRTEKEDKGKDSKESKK

[2] = system: Nav1.5; conditions: read-out: Nav1.5 Ionworks (IC50); automated patch clamp, literature reported; ref Harmer et al., 2011; cited from earlier work

Question: Which “Nav1.7 Swarm (score at 3 µM)” value [1] does the source give for `CN1CCC[C@@H]1CCO[C@](C)(c1ccccc1)c1ccc(Cl)cc1` [Clemastine] here?
Answer: The value was 0.02.

Question: And the IC50 [2]?
Answer: Its IC50 is 4 µM.

Source: paper PMC9289666, “Highly Parallelized, Multicolor Optogenetic Recordings of Cellular Activity for Therapeutic Discovery Applications in Ion Channels and Disease-Associated Excitable Cells” (Frontiers in Molecular Neuroscience, 2022)
